Experimental data: PubChem BioAssay AID1259254 (NCATS, 2017)
Aim: 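Gene knock-downs that lead to re-replication, shown by excess G2 DNA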 (primary screen). Cell system: human HCT116 colorectal cancer cells. Knock-down reagent: single siRNA against human genes. Duration: 3 days. Measurement: 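Imaged Hoechst DNA stain sorts each cell into a cycle phase by DNA amount; per plate, G2 fraction set to 0% for non-targeting and 100% for GMNN siRNA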. Scale: G2 robust z-score: higher = more G2 cells, more excess DNA replication. Rule for the call: 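Active siRNAs have a G2 robust z of 5 or more median absolute deviations over the median, which in these data means about 38% or higher of GMNN control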.
In all, the deposit lists about 59,000 reagents; below is an unselected part. About 1,550 of all reagents (2.6%) were called active. 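G2 share is only a proxy for re-replication; each gene was hit by three separate siRNAs, and active genes were retested.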 Reagents against one gene are numbered here. Not all columns of the deposit are shown. Not stated in the record: the amount of reagent.

G2 robust z-score, by gene and reagent
HOXC6 (homeobox C6): #1 -0.857 inactive; #2 -0.505 inactive; #3 0.81 inactive
AKAP1 (A-kinase anchoring protein 1): #1 -0.875 inactive; #2 0.671 inactive; #3 -0.153 inactive
LCA5 (lebercilin LCA5): #1 1.06 inactive; #2 -0.269 inactive; #3 -0.221 inactive
RAB10 (RAB10, member RAS oncogene family): #1 0.0641 inactive; #2 1.01 inactive; #3 4.4 inactive
EDNRA (endothelin receptor type A): #1 1.72 inactive; #2 -0.362 inactive; #3 -1.06 inactive
NME6 (NME/NM23 nucleoside diphosphate kinase 6): #1 -1.13 inactive; #2 -0.0285 inactive; #3 -0.0936 inactive
MYOZ2 (myozenin 2): #1 -0.88 inactive; #2 -0.388 inactive; #3 -0.519 inactive
SERPINI1 (serpin family I member 1): #1 -0.729 inactive; #2 1.11 inactive; #3 -0.914 inactive
HEBP1 (heme binding protein 1): #1 2.94 inactive; #2 -0.0756 inactive; #3 -0.227 inactive
VGF (VGF nerve growth factor inducible): #1 -0.905 inactive; #2 -0.743 inactive; #3 3.1 inactive
